At least one compound was matched to its structure with a doubt left.
Columns and labels:
Assay in all cases: High throughput assay screening of prebiotics
L. jensenii = assay type: cell-based, Lactobacillus jensenii; conditions: 2% w/v prebiotic in API 50 CHL media; for growth and fermentation vs positive control, Lj-2: L. jensenii KC17-4347-1, Bladder
Experimental: (§1) Most of the prebiotic compounds were initially tested in a high throughput assay screening process, described further in the Test Methods section herein, but three prebiotics (as noted in Table 3) were tested using a plate assay screening process as described in the Test Methods section herein. The prebiotics were tested against the commensal bacterial species of Lactobacillus crispatus, Lactobacillus gasseri, and Lactobacillus jensenii and against the pathogenic bacterial species of Streptococcus anginosus and Enterococcus faecalis as shown in Table 2. The bacterial species were taken from different sources, listed as culture collection, bladder, and vagina.
(§2) The results of the assay plate screening of the prebiotic compounds of Table 1 against the bacterial species of Table 2 is documented in Table 3 with the results being described by the following legend: • ++ if growth and fermentation was equal to or greater than the positive control • + if growth and fermentation was less than the positive control • […] if weak or no growth or fermentation • NT if not tested Some codes were not tested based on the use or non-use by the bacteria, as a way to efficiently move through the assay plate screening to the competition assay, described below.
(§3) • 1. Create a 2% w/v stock of prebiotic or positive control (glucose/dextrose) to be tested in API 50 CHL media (Biomerieux, Marcy-I'Étoile, France). API 50 CHL media contains minimal amounts of carbon for growth, and a bromocresol purple as a pH indicator of fermentation. Filter sterilize media with a […]. Store at 4-6° C. until use. • 2. Add 180 μL of media containing the prebiotic to a sterile, flat bottom 96-well microtiter plate (Corning, Corning, NY). • 3. From a freezer stock subculture the bacteria twice into De Man, Rogosa and Sharpe (MRS) broth (BD Difco, Becton Dickinson, Franklin Lakes, NJ), 37° C., stationary, anaerobic, overnight. • 4. From the last subculture, plate onto an MRS agar plate (Teknova, Hollister, CA) and grow 37° C., stationary, anaerobic, overnight. • 5. Create a bacterial suspension by using a sterile tipped swab to transfer colonies of bacteria into a PBS suspension blank to a 0.5 MacFarland (S. anginosus or E. faecalis) or a 1 MacFarland (Lactobacillus species) from the MRS agar plate. • 6. Enumerate the starting culture. • 7. Inoculate the media alone and media containing the prebiotic or positive control with 20 μL of the bacterial suspension. • 8. Place the plate into a spectrophotometer (Molecular Devices, San Jose, CA) and read the plate every 20 minutes for 24-48 hours. Read wavelengths (OD 430, OD 590, and OD 660). A color change to yellow caused by a drop in pH will be read by an increase in the OD430 value and a decrease in the OD590 value and is indicative of bacterial fermentation. […]

L. crispatus = assay type: cell-based, Lactobacillus crispatus; conditions: 2% w/v prebiotic in API 50 CHL media; for growth and fermentation vs positive control, Lc-3: L. crispatus KC18-1173-1, Bladder; for growth and fermentation vs positive control, Lc-2: L. crispatus KC16-7134-3C, Bladder
Experimental: as §1, §2
(§4) • 1. Create a 2% w/v stock of prebiotic or positive control (glucose/dextrose) to be tested in API 50 CHL media (Biomerieux, Marcy-I'Étoile, France). API 50 CHL media contains minimal amounts of carbon for growth, and a bromocresol purple as a pH indicator of fermentation. Filter sterilize media with a […]. Store at 4-6° C. until use. • 2. Add 180 μL of media containing the prebiotic to a sterile, flat bottom 96-well microtiter plate (Corning, Corning, NY). • 3. From a freezer stock subculture the bacteria twice into De Man, Rogosa and Sharpe (MRS) broth (BD Difco, Becton Dickinson, Franklin Lakes, NJ), 37° C., stationary, anaerobic, overnight. • 4. From the last subculture, plate onto an MRS agar plate (Teknova, Hollister, CA) and grow 37° C., stationary, anaerobic, overnight. • 5. Create a bacterial suspension by using a sterile tipped swab to transfer colonies of bacteria into a PBS suspension blank to a 0.5 MacFarland (S. anginosus or E. faecalis) or a 1 MacFarland (Lactobacillus species) from the MRS agar plate. • 6. Enumerate the starting culture. • 7. Inoculate the media alone and media containing the prebiotic or positive control with 20 μL of the bacterial suspension. • 8. Place the plate into a spectrophotometer (Molecular Devices, San Jose, CA) and read the plate every 20 minutes for 24-48 hours. Read wavelengths (OD 430, OD 590, and OD 660). A color change to yellow caused by a drop in pH will be read by an increase in the OD430 value and a decrease in the OD590 value and is indicative of bacterial fermentation. An increase in OD660 values is indicative of an increase in turbidity and bacterial growth.

L. gasseri = assay type: cell-based, Lactobacillus gasseri; conditions: 2% w/v prebiotic in API 50 CHL media; for growth and fermentation vs positive control, Lg-1: L. gasseri KC16-7135-1, Bladder; for growth and fermentation vs positive control, Lg-2: L. gasseri KC16-7171-1, Bladder; for growth and fermentation vs positive control, Lg-4: L. gasseri KC18-1142-2, Bladder
Experimental: as §1, §2, §4

S. anginosus = assay type: cell-based, Streptococcus anginosus; conditions: 2% w/v prebiotic in API 50 CHL media; for growth and fermentation vs positive control, Sa-2: S. anginosus KC18-1131-3B, Bladder
Experimental: as §1, §2, §3

E. faecalis = assay type: cell-based, Enterococcus faecalis; conditions: 2% w/v prebiotic in API 50 CHL media; for growth and fermentation vs positive control, Ef-2: E. faecalis KC16-7171-3, Bladder; for growth and fermentation vs positive control, Ef-3: E. faecalis KC17-3969-2B, Bladder; for growth and fermentation vs positive control, Ef-4: E. faecalis KC17-4331-3, Bladder
Experimental: as §1, §2, §4

CO[C@H]1O[C@H](CO)[C@@H](O)[C@H](O)[C@H]1O [Alpha-Methyl-D-Glucoside]
−: growth and fermentation vs positive control, Lj-1 (L. jensenii; L. jensenii KC17-4297-18, Bladder) | growth and fermentation vs positive control, Lc-3 (L. crispatus) | growth and fermentation vs positive control, Lg-1 (L. gasseri) | growth and fermentation vs positive control, Lg-2 (L. gasseri) | growth and fermentation vs positive control, Lg-3 (L. gasseri; L. gasseri KC18-1131-2, Bladder) | growth and fermentation vs positive control, Lg-4 (L. gasseri) | growth and fermentation vs positive control, Sa-2 (S. anginosus) | growth and fermentation vs positive control, Ef-2 (E. faecalis) | growth and fermentation vs positive control, Ef-3 (E. faecalis) | growth and fermentation vs positive control, Ef-4 (E. faecalis)

OC[C@H]1O[C@@H](O[C@H]2[C@H](O)[C@@H](O)[C@H](O)O[C@@H]2CO)[C@H](O)[C@@H](O)[C@@H]1O [D-Cellobiose]
−: growth and fermentation vs positive control, Lj-2 (L. jensenii)

OC[C@H]1O[C@H](O[C@H]2O[C@H](CO)[C@@H](O)[C@H](O)[C@H]2O)[C@H](O)[C@@H](O)[C@@H]1O [D-Trehalose]
−: growth and fermentation vs positive control, Lj-2 (L. jensenii) | growth and fermentation vs positive control, Lg-4 (L. gasseri)

OC[C@@H](O)[C@@H](O[C@H]1O[C@H](CO)[C@@H](O)[C@H](O)[C@H]1O)[C@H](O)[C@@H](O)CO [Maltitol]
−: growth and fermentation vs positive control, Lj-2 (L. jensenii) | growth and fermentation vs positive control, Lc-2 (L. crispatus) | growth and fermentation vs positive control, Lc-3 (L. crispatus) | growth and fermentation vs positive control, Lc-4 (L. crispatus; L. crispatus KC18-1174-1, Vagina) | growth and fermentation vs positive control, Lg-1 (L. gasseri) | growth and fermentation vs positive control, Lg-2 (L. gasseri) | growth and fermentation vs positive control, Sa-1 (S. anginosus; S. anginosus ATCC 33397, Culture Collection) | growth and fermentation vs positive control, Sa-2 (S. anginosus) | growth and fermentation vs positive control, Ef-1 (E. faecalis; E. faecalis ATCC BAA-2128, Culture Collection) | growth and fermentation vs positive control, Ef-2 (E. faecalis) | growth and fermentation vs positive control, Ef-3 (E. faecalis) | growth and fermentation vs positive control, Ef-4 (E. faecalis)

OC[C@H]1O[C@H](OC[C@H]2OC(O)(CO)[C@@H](O)[C@@H]2O)[C@H](O)[C@@H](O)[C@@H]1O (stereo partly shown) [Palatinose (isomaltulose), isomaltulose]
−: growth and fermentation vs positive control, Lc-2 (L. crispatus) | growth and fermentation vs positive control, Lg-1 (L. gasseri) | growth and fermentation vs positive control, Sa-2 (S. anginosus) | growth and fermentation vs positive control, Ef-2 (E. faecalis) | growth and fermentation vs positive control, Ef-3 (E. faecalis) | growth and fermentation vs positive control, Ef-4 (E. faecalis)
